Assay results as given in PubChem BioAssay AID588590 (National Center for Advancing Translational Sciences (NCATS), 2011).
Several values for one entry are separate records, joined by “and”; a condition that tells them apart may be missing. Equal entries are not always repeated. The campaign covered roughly 390,000 compounds. About 4,000 (1%) were called active. This list was built around the results that the source calls inconclusive (neither active nor inactive); the mix of calls is not that of the screen. Calls come from the whole dose curve; as a rule, active = well fitted inhibition curve with a large enough effect; inconclusive = small, poorly fitted or top-dose-only effect, or another doubt; inactive = no such curve, though single readings can be large or run the other way. Where the call is inconclusive, the potency comes from a doubtful curve fit.
Potency is the fitted concentration of half-maximal effect.

Sequences of proteins named here, by UniProt entry; tags and fusion partners are left off. A change or cut given only in a name is not applied to a line headed by its entry.
UniProt Q9UNA4: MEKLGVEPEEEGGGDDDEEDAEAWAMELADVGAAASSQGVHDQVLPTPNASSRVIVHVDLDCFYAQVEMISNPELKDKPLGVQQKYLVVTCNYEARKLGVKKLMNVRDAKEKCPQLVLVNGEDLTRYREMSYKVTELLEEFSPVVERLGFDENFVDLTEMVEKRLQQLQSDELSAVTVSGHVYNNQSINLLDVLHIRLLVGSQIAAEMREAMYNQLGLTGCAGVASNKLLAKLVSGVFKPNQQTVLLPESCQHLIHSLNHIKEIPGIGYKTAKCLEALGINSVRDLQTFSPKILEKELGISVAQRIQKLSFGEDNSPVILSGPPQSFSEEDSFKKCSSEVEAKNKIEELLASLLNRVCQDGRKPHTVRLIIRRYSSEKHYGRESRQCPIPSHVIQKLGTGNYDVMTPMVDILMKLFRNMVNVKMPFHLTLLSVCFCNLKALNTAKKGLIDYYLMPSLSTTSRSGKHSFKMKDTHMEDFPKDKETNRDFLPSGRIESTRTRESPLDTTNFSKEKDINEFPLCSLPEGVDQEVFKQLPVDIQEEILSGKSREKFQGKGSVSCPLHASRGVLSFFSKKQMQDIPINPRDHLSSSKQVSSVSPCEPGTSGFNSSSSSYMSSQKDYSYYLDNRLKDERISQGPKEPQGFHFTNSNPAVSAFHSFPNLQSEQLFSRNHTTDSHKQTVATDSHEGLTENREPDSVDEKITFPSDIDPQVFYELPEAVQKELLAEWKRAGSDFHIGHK

The compounds below were run against DNA polymerase iota (Homo sapiens) (UniProt Q9UNA4) (assay: qHTS for Inhibitors of Polymerase Iota). Details: Pol iota fluorescent replication assay, 10 min; series mostly up to 115 µM.
In short: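 Fluorescent replication assay read twice, at 0 min and 10 min after adding 50 nM (final) substrate. Enzyme (10 nM) and compounds were first incubated 15 min at room temperature; enzyme-free buffer wells were negative controls.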
With CCCCCCCCc1nnc(NC(=O)c2ccco2)s1 the Potency was “inactive”. In the case of Cc1ccc(-c2nn3c(C)nnc3s2)cc1NC(=O)c1ccc(-c2ccc(Cl)cc2Cl)o1, the Potency is reported as inconclusive: 2.82 µM [inhibitor, full curve, poor fit]. In the case of NS(=O)(=O)c1ccc(NC(=O)COc2ccc(C(=O)c3ccc(F)cc3)cc2)cc1, the Potency is reported as inconclusive: 100 µM [inhibitor, single point]. In the case of Cc1cc(C)cc(NC(=O)C2CCCN2S(=O)(=O)c2cccc3nsnc23)c1 (centres undefined), the Potency is reported as “inactive”. In the case of Nc1nc(N)c(C=Nc2ccc(Br)cc2)c(Nc2ccc(Br)cc2)n1, the Potency is reported as inconclusive: 100 µM [inhibitor, single point]. O=C(Nc1ncn[nH]1)C(F)(F)C(F)F was tested, and the Potency was inconclusive: 14.1 µM [inhibitor, partial curve, poor fit]. With Cc1cccc(-c2noc(-c3ccc(N4CCN(C)CC4)c([N+](=O)[O-])c3)n2)c1 the Potency was “inactive”. In the case of COc1ccc(NCc2n[nH]nc2-c2ccccc2)cc1Cl, the Potency is reported as inconclusive: 35.5 µM [inhibitor, single point]. With CC1(C)C2CCC1(C)C(NC(=O)COC(=O)c1ccc(S(C)(=O)=O)c([N+](=O)[O-])c1)C2 (centres undefined) the Potency was inconclusive: 25.1 µM [inhibitor, full curve, poor fit]. In the case of CC1(C)CC(=O)C(C=NCCCO)=C(O)C1, the Potency is reported as inconclusive: 89.1 µM [inhibitor, single point]. O=c1c2ccccc2sn1-c1ccc(F)cc1 was tested, and the Potency was inconclusive: 39.8 µM [inhibitor, single point]. For COc1ccc(-c2noc(-c3ccc(N4CCCCC4C)c([N+](=O)[O-])c3)n2)cc1OC (centres undefined), the Potency was “inactive”. In the case of C=C1CCN(c2ccc(C(=O)O)cc2[N+](=O)[O-])CC1, the Potency is reported as inconclusive: 50.1 µM [inhibitor, partial curve, poor fit]. In the case of Cc1ccc(NC(=O)CCc2nnc3ccc(N4CCC5(CC4)OCCO5)nn23)nc1, the Potency is reported as inconclusive: 79.4 µM [inhibitor, single point]. For COc1nc(-c2ccc(C)cc2)ccc1-c1noc(-c2ccco2)n1, the Potency was inconclusive: 39.8 µM [inhibitor, single point]. With O=C(N/N=C/c1cc(Br)c(Br)o1)c1cccnc1 the Potency was inconclusive: 17.8 µM [inhibitor, full curve, poor fit]. In the case of CC(C)(C)[C@H]1COC(=O)CCC/C=C/C[C@H](CC(=O)NCCO)C(=O)N1, the Potency is reported as inconclusive: 39.8 µM [inhibitor, single point]. In the case of COc1ccc(Nc2ccnc3ccccc23)cc1, the Potency is reported as “inactive”. With Cn1ncc(C(=O)N2CCN(c3ccc(F)cc3)CC2)c1C1CCN(C(=O)OC(C)(C)C)CC1 the Potency was “inactive”. In the case of CCCC(=O)Nc1ccc(-c2nc3cc(C)c(C)cc3o2)cc1, the Potency is reported as inconclusive: 89.1 µM [inhibitor, partial curve, poor fit]. With CC(=O)Nc1ccc(NC(=S)Nc2ccc(Br)cc2)cc1 the Potency was inconclusive: 100 µM [inhibitor, partial curve, poor fit]. In the case of CC1(C)CCN2CCC(C)(C)c3c(O)ccc1c32, the Potency is reported as inconclusive: 20 µM [inhibitor, partial curve]. For CCN1C(=O)[C@@H]2[C@@H](c3ccc(-c4ccc(C(C)=O)cc4)c(OC)c3)N3CCC[C@@]3(C(=O)OC)[C@@H]2C1=O, the Potency was inconclusive: 39.8 µM [inhibitor, partial curve, poor fit]. CSCCC(NS(=O)(=O)c1ccccc1F)C(=O)NCC(C)(C)N1CCOCC1 (centres undefined) was tested, and the Potency was inconclusive: 89.1 µM [inhibitor, single point]. CCOC(=O)c1oc2ccc(Br)cc2c1COC(=O)C1=COCCO1 was tested, and the Potency was “inactive”. CSc1ncccc1C(=O)OCc1ccccc1Cl was tested, and the Potency was inconclusive: 89.1 µM [inhibitor, single point]. In the case of COc1ccc2cc(-c3cc(C(=O)OCC(=O)NC4CCS(=O)(=O)C4)c4ccccc4n3)ccc2c1 (centres undefined), the Potency is reported as inconclusive: 20 µM [inhibitor, full curve, poor fit]. For CCOc1ccc(-n2c(SCC(=O)Nc3ccc(F)cc3)nc3c([nH]c4ccccc43)c2=O)cc1, the Potency was “inactive”. For O=C(Nc1ccccc1)c1ccc(-c2ccccc2)s1, the Potency was “inactive”. CCOc1ccccc1CNC(=O)c1ccc2c(c1)sc1nc(-c3cccc(OC)c3)cn12 was tested, and the Potency was inconclusive: 89.1 µM [inhibitor, single point]. For CC(C)(C)c1cc(CN2CCCC(O)C2)c(O)c(C(C)(C)C)c1 (centres undefined), the Potency was inconclusive: 14.1 µM [inhibitor, full curve]. COc1ccc(/C=C/C(=O)Nc2sc3c(c2C(N)=O)CCC(C)C3)cc1OC (centres undefined) was tested, and the Potency was “inactive”. With O=C(NCC1(c2ccccc2)CCOCC1)c1cccs1 the Potency was “inactive”. With COc1ccc(CC(=O)Nc2ccccc2NC(=O)Cc2ccc(OC)cc2)cc1 the Potency was inconclusive: 56.2 µM [inhibitor, partial curve, poor fit]. In the case of O=C(CSc1nc2ccsc2c(=O)n1CC1CCC(C(=O)O)CC1)c1ccc(F)cc1 (centres undefined), the Potency is reported as “inactive”. In the case of COc1cc(SC#N)ccc1N=Cc1c(C)[nH]n(-c2ccc(C)cc2C)c1=O, the Potency is reported as inconclusive: 6.31 µM [inhibitor, partial curve, poor fit]. In the case of CC1=C2C3OC(=O)C(C)C3CCC2(C)C=CC1=NO (centres undefined), the Potency is reported as “inactive”. For CNC(=O)c1c[nH]c2ccc(S(=O)(=O)Nc3cccc(Cl)c3C)cc2c1=O, the Potency was inconclusive: 89.1 µM [inhibitor, single point]. In the case of COc1ccc2[nH]c(C)c(CCN(Cc3cccs3)C(=S)Nc3ccccc3OC)c2c1, the Potency is reported as inconclusive: 14.1 µM [inhibitor, partial curve, poor fit]. With Nc1ccc(-c2nnc(-c3ccc(-c4ccccc4)cc3)o2)cc1 the Potency was inconclusive: 4.47 µM [inhibitor, full curve, poor fit]. For O=c1c(O)c(-c2ccc(O)cc2O)oc2cc(O)cc(O)c12, the Potency was active: 50.1 µM and active: 3.98 µM. For CC(=O)N(c1ccccc1)c1ccc([N+](=O)[O-])cc1[N+](=O)[O-], the Potency was inconclusive: 35.5 µM [inhibitor, single point]. In the case of COc1ccc(S(=O)(=O)Cc2ccc(C(=O)N3CCc4ccccc4C3)o2)cc1, the Potency is reported as “inactive”. For COc1ccc(C2CNC(=O)C2)cc1OC1CCCC1 (centres undefined), the Potency was inconclusive: 11.2 µM [inhibitor, partial curve, poor fit]. With CCC(C)NC(=O)CNC(=O)c1nn(-c2ccc(OC)c(Cl)c2)c(=O)c2ccccc12 (centres undefined) the Potency was “inactive”. For Cc1ccc(/C([O-])=C(/C(=S)NCc2ccco2)[n+]2ccccc2)cc1[N+](=O)[O-], the Potency was inconclusive: 20 µM [inhibitor, full curve, poor fit]. For O=C(O)CC(CC(=O)O)c1ccc2c(c1)OCO2, the Potency was inconclusive: 89.1 µM [inhibitor, single point]. For Cc1c(Cl)cccc1NC(=O)Cn1cnc2nc3c(cc2c1=O)CCCC3, the Potency was “inactive”. With COc1ccc2c(c1)c1c(c(=O)n(-c3ccccc3)c(=O)n1CC(=O)Nc1ccc(C)c(C)c1)n2C the Potency was “inactive”. With CN1/C(=C/C(=O)c2nc(S(C)(=O)=O)ncc2Cl)C(C)(C)c2ccccc21 the Potency was inconclusive: 39.8 µM [inhibitor, partial curve, poor fit]. For CC1CC(C)CN(C(=O)COC(=O)/C=C/c2cccc([N+](=O)[O-])c2)C1 (centres undefined), the Potency was inconclusive: 89.1 µM [inhibitor, single point]. C=CCn1c(SCc2nc3sc(C(=O)O)c(C)c3c(=O)[nH]2)nnc1-c1ccccc1 was tested, and the Potency was inconclusive: 22.4 µM [inhibitor, full curve, poor fit]. In the case of Cc1ccc2c(c1)cc1c(=O)n(CC(=O)N3CCCCC3)nc(C)n12, the Potency is reported as “inactive”. For CCN1C(=O)/C(=C/C=C2\N(CC)c3cc(S(=O)(=O)N(C)C)ccc3N2c2ccccc2)SC1=S, the Potency was inconclusive: 3.55 µM [inhibitor, partial curve, poor fit]. CC1Cc2nc(SCC(=O)Nc3ccc4c(c3)OCO4)n(Cc3ccccc3)c(=O)c2S1 (centres undefined) was tested, and the Potency was inconclusive: 89.1 µM [inhibitor, partial curve, poor fit]. For COc1ccc2nc3c(cc2c1)Cn1c-3nc2ccccc2c1=O, the Potency was inconclusive: 89.1 µM [inhibitor, single point]. For COc1cc(/C=N/NC(=O)c2nc(-c3ccccc3)n(-c3ccccc3)n2)ccc1O, the Potency was “inactive”. For N#CCC(=O)Nc1ccc(C(=O)OCC(=O)NNC(=O)c2cccs2)cc1, the Potency was inconclusive: 39.8 µM [inhibitor, partial curve, poor fit]. In the case of O=[N+]([O-])c1ccc(Oc2cccnc2)c([N+](=O)[O-])c1, the Potency is reported as inconclusive: 89.1 µM [inhibitor, partial curve, poor fit]. For O=C1N/C(=N\S(=O)(=O)Cc2ccccc2)S/C1=C/c1cc([N+](=O)[O-])ccc1O, the Potency was inconclusive: 12.6 µM [inhibitor, partial curve, poor fit]. For O=C(Cn1cnc2c(cnn2-c2ccccc2)c1=O)c1ccc(Cl)cc1, the Potency was inconclusive: 39.8 µM [inhibitor, single point]. For Cc1cc2c(cc1S(=O)(=O)N(CCN(C)C)Cc1ccco1)OCC(=O)N2, the Potency was inconclusive: 89.1 µM [inhibitor, single point]. For Cc1ccc(NC(=O)C2CCN(S(=O)(=O)c3c(C)noc3/C=C/c3ccco3)CC2)cc1C, the Potency was inconclusive: 79.4 µM [inhibitor, single point]. In the case of O=C(Nc1ccccc1Cl)c1cccc(NC(=O)c2cccs2)c1, the Potency is reported as inconclusive: 89.1 µM [inhibitor, single point].
